Test results published in patent publication US20180264088A1, “USE OF CREATINE KINASE AND DERIVED PEPTIDES THEREOF TO RELIEVE PAIN” (CENTRE NATIONAL DE LA RECHERCHE SCIENTIFIQUE, priority 2015, published 2018).

Test system: C57Bl/6J neuropathic mice
Assay: Intraperitoneal injection, mechanical nociceptive thresholds of neuropathic (cuffed) mice, von Frey filaments
Format: in vivo
Conditions: 10 nmoles

CN1CC[C@]23c4c5ccc(O)c4O[C@H]2[C@@H](O)C=C[C@H]3[C@H]1C5 [morphine, reference compound]
basic mechanical nociceptive thresholds of the contralateral hind legs: do not modify
